Results from the supplement of paper PMC10849652.
The list shows a part of the results.

Sequences of proteins named here, by UniProt entry; tags and fusion partners are left off. A change or cut given only in a name is not applied to a line headed by its entry.
UniProt Q9NVP1: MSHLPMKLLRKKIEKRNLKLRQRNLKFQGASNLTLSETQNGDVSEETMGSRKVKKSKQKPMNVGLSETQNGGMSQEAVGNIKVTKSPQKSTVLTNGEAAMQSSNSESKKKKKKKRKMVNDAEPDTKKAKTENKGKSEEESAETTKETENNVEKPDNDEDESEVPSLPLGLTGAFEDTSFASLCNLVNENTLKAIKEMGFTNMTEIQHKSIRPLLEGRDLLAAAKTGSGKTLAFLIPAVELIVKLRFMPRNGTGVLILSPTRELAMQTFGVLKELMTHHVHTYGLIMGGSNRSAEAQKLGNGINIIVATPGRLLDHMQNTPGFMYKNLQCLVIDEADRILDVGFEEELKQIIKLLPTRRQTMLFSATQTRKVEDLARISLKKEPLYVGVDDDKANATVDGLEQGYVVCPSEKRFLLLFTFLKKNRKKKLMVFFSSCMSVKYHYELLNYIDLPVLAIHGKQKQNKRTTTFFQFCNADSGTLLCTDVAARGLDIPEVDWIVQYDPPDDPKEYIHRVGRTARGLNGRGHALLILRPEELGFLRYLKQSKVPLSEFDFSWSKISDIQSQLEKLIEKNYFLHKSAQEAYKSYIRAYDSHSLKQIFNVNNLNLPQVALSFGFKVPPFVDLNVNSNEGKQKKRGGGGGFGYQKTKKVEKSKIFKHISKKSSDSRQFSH
UniProt Q9BTE7: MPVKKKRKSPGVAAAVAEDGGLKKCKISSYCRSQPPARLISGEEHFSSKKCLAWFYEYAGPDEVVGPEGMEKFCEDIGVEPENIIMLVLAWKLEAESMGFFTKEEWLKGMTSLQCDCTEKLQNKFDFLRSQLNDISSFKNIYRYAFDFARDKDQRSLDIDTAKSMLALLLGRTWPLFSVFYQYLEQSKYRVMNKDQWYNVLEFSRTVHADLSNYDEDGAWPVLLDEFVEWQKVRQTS
UniProt Q8IV53: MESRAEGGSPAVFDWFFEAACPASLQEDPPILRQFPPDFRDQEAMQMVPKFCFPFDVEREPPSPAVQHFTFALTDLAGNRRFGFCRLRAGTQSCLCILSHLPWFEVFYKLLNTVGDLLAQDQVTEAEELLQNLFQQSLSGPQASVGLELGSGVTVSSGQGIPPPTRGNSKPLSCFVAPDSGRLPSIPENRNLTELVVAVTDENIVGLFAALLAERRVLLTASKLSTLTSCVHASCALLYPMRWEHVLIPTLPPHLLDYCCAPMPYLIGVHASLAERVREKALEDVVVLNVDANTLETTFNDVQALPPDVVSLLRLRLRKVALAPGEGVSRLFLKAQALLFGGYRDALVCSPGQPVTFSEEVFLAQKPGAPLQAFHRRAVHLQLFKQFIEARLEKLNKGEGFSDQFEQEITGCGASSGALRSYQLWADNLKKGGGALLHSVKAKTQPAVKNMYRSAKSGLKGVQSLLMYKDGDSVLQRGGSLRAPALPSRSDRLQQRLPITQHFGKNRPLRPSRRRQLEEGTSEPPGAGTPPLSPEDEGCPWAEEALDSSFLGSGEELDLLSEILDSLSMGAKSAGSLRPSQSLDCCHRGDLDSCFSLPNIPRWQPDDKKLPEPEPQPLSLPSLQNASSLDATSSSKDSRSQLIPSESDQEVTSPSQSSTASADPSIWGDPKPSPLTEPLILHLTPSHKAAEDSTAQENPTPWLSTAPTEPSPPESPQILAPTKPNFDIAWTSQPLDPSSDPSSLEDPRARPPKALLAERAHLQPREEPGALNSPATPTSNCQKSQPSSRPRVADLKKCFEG
UniProt Q96HY6: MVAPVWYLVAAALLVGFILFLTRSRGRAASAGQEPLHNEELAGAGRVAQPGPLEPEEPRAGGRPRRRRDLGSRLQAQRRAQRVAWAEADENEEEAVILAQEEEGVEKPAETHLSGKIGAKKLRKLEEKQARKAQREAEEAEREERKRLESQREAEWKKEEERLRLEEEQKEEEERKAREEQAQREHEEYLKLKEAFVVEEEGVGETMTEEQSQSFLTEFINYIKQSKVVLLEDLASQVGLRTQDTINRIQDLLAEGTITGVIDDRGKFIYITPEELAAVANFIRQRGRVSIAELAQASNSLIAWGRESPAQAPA
UniProt Q9NV06: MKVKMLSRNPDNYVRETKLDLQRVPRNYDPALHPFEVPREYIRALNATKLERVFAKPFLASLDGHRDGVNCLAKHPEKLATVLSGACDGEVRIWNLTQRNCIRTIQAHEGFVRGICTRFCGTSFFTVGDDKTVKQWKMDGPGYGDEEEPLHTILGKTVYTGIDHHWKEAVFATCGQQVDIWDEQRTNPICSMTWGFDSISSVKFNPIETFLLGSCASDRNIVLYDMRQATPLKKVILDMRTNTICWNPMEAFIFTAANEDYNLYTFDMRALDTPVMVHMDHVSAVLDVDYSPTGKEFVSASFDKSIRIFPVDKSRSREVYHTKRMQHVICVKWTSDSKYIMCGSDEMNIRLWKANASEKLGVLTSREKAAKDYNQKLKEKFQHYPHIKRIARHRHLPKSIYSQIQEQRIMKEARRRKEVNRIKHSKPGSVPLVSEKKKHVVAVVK
UniProt P30046: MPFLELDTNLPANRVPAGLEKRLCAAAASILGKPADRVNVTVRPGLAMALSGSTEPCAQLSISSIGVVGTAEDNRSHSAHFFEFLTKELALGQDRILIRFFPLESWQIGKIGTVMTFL
UniProt P32321: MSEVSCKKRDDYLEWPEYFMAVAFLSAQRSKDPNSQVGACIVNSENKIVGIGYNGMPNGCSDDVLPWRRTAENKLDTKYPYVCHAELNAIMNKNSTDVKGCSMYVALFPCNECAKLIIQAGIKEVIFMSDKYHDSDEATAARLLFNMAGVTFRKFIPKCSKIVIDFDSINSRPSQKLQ
UniProt Q8TEH3: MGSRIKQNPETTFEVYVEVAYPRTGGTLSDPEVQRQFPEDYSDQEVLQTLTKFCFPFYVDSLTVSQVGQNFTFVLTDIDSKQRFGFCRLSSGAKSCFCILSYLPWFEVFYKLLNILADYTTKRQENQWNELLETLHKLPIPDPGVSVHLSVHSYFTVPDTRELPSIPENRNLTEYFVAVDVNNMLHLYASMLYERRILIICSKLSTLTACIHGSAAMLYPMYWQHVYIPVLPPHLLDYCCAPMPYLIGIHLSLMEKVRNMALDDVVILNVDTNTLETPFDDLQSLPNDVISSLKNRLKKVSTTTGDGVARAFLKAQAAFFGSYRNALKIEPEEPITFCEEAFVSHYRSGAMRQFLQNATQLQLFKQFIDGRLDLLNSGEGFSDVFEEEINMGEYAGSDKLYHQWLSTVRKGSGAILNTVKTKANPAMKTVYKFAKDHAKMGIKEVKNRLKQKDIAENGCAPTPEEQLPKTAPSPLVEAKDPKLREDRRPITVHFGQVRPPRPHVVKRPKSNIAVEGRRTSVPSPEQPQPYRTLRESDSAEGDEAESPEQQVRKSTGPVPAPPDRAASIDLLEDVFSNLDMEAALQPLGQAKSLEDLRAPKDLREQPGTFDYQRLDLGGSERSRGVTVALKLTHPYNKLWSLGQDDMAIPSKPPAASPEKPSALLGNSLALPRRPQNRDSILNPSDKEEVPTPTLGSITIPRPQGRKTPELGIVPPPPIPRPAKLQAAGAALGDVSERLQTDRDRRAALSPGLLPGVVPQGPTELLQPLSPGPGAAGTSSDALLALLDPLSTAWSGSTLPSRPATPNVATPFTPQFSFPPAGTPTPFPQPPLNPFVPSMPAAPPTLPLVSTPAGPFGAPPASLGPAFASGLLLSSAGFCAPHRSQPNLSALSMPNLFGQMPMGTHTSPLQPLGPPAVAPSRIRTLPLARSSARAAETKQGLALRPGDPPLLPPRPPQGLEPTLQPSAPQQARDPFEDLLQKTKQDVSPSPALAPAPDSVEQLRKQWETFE
UniProt Q14203, whole entry, looked up: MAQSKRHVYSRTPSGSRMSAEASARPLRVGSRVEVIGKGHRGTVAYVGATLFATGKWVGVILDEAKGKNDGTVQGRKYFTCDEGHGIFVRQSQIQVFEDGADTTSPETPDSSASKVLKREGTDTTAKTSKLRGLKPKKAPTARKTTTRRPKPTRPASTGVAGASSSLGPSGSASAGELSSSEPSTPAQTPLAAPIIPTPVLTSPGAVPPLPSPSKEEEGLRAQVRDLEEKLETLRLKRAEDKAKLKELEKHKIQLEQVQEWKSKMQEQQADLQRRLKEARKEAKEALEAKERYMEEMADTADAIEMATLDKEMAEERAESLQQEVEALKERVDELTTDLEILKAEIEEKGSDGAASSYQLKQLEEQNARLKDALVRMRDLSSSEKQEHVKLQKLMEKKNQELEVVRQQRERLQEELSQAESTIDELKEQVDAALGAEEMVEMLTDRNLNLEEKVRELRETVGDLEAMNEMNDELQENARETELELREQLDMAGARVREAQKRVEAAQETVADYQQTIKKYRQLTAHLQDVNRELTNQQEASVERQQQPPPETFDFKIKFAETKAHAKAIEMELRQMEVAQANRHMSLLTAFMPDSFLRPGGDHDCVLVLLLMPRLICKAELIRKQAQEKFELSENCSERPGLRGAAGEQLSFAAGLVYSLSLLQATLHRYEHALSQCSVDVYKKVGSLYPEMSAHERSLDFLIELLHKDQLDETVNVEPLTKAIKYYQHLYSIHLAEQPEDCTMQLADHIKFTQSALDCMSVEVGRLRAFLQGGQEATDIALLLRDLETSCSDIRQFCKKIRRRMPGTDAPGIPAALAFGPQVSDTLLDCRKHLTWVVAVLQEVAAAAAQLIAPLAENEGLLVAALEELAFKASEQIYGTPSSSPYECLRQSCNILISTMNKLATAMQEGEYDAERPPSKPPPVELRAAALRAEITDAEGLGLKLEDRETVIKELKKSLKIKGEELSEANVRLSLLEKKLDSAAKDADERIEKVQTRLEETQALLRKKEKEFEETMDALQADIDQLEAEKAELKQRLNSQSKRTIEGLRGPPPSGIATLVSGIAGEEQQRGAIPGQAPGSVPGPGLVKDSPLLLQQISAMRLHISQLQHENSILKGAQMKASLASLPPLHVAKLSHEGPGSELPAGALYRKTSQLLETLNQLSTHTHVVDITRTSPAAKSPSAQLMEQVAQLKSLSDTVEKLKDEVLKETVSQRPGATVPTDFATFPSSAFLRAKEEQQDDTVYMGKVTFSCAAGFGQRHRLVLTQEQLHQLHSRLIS
UniProt Q13561, whole entry, looked up: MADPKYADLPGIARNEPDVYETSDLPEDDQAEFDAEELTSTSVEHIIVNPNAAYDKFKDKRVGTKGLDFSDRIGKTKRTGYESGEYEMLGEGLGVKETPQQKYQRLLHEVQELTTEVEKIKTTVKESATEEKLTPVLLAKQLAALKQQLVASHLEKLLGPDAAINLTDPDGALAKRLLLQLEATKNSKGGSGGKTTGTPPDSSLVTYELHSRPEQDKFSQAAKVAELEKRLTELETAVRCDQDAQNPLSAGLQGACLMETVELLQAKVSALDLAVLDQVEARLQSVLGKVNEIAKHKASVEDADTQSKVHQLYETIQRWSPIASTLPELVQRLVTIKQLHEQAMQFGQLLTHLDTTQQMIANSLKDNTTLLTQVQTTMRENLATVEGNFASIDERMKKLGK
UniProt Q9NR30: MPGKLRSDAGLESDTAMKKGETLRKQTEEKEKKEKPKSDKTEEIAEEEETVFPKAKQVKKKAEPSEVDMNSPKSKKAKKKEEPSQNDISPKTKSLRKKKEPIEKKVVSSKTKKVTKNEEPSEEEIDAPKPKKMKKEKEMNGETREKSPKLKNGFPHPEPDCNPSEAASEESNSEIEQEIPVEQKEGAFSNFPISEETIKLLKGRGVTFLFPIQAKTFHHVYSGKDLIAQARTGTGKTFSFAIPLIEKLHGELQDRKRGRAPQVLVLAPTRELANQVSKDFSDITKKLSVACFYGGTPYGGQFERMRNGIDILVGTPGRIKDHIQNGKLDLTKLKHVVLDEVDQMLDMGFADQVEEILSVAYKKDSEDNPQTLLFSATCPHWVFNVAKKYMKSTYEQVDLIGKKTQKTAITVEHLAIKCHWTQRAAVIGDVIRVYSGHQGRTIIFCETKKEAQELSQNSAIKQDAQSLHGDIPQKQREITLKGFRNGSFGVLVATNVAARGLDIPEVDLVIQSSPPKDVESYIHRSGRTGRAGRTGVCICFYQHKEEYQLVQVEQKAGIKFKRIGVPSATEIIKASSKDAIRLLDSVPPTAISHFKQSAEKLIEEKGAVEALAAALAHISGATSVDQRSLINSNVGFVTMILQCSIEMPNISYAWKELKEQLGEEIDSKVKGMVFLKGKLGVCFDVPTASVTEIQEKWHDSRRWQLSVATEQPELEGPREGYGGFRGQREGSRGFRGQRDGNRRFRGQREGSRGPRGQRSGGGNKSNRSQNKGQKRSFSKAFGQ
UniProt P61962: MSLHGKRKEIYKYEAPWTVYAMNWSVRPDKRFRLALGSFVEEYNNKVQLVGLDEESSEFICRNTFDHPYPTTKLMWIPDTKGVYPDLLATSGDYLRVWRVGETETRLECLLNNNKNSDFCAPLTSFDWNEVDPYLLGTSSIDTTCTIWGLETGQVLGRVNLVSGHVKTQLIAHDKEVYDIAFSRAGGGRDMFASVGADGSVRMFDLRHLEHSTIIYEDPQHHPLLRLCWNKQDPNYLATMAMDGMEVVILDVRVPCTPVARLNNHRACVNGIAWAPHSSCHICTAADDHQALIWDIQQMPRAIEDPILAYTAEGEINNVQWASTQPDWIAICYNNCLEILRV

How the values were obtained:
Test in all cases: log2 fold change, soluble protein after heating vs DMSO (PISA); higher = thermal stabilisation; K562 lysate, 10 uM; active = over 0.2 and 3.5 SD of the protein, either way, in both replicates (recomputed)
[1] = compound: C1=CC=C(C=C1)[C@H](COC2=CC3=C(C=C2)NC(=O)N3)NC(=O)C4=CC=CN(C4=O)CC5=CC(=C(C=C5)F)F
In short: (§1)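 To prepare the extract, K562 pellets were dounce-homogenised in PBS pH 7.4 with 1 mM MgCl2, giving crude material at 1 mg/mL protein. This was treated with 10 μM compound for 30 min, then heated in aliquots for 3 min over 48°C-58°C before pooling and addition of NP-40 to 0.5% at 4°C. Centrifugation at 21,000xg for 90 min left soluble protein in the supernatant, which TMTpro 16plex LC-MS/MS quantified with equalised channel sums. Results are log-two fold changes in thermal stability compared with solvent controls, from duplicates.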

[2] = compound: CC1=C(SC2=C1C(=N[C@H](C3=NN=C(N32)C)CC(=O)N)C4=CC=C(C=C4)Cl)C
In short: as §1

[3] = compound: CC1=C2C(=CC=C1)N=C(N(C2=O)C3=CC=CC=C3C)CN4C=NC5=C(N=CN=C54)N
In short: as §1

[4] = compound: Cc1sc2c(c1C)C(c1ccc(Cl)cc1)=N[C@@H](CC(=O)OC(C)(C)C)c1nnc(C)n1-2
In short: as §1

[5] = compound: c1ccc([C@@H]2C[C@H]2NC2CCNCC2)cc1
In short: as §1

Measured: log2 fold change

DECR1 (UniProt Q16698)
inactive: [1] 0.008 | [2] 0.006 | [3] -0.01 | [4] 0.039 | [5] 0.004

DDX18 (UniProt Q9NVP1)
inactive: [1] 0.034 | [2] 0.005 | [3] -0.036 | [4] -0.005 | [5] 0.002

DCPS (UniProt Q96C86)
inactive: [1] 0.02 | [2] 0.008 | [3] -0.009 | [4] 0.008 | [5] 0.02

DCUN1D5 (UniProt Q9BTE7)
inactive: [1] -0.01 | [2] 0.209 | [3] 0 | [4] -0.006 | [5] 0.113

DAAM1 (UniProt Q9Y4D1)
inactive: [1] -0.056 | [2] -0.02 | [3] -0.016 | [4] 0.344 | [5] -0.043

DDA1 (UniProt Q9BW61)
inactive: [1] 0.073 | [2] 0.024 | [3] -0.016 | [4] -0.003 | [5] 0.029

DCAF12 (UniProt Q5T6F0)
inactive: [1] 0.063 | [2] 0.011 | [3] -0.07 | [4] -0.08

DENND10 (UniProt Q8TCE6)
inactive: [1] 0.022 | [2] 0.113 | [3] 0.049 | [4] -0.023 | [5] -0.002

DDX50 (UniProt Q9BQ39)
inactive: [1] 0.038 | [2] 0.019 | [3] -0.037 | [4] -0.016 | [5] 0.063

DCAF12L2 (UniProt Q5VW00)
inactive: [1] 0.014 | [2] 0.112 | [3] -0.014

DENND1C (UniProt Q8IV53)
inactive: [1] 0.094 | [2] 0.261 | [3] -0.11 | [4] -0.208

DERL2 (UniProt Q9GZP9)
inactive: [1] -0.115 | [2] 0.009 | [3] -0.065 | [4] -0.099 | [5] 0.158

DDRGK1 (UniProt Q96HY6)
inactive: [1] 0.049 | [2] -0.007 | [3] 0.009 | [4] 0.027 | [5] 0.031

DDX46, A0A0C4DG89
inactive: [1] -0.148 | [2] 0.067 | [3] -0.054 | [4] 0.11 | [5] 0.064

DEF8 (UniProt Q6ZN54)
inactive: [1] -0.228 | [2] -0.001 | [3] -0.047 | [4] -0.017

DCAF6 isoform 3 (UniProt Q58WW2)
inactive: [1] 0.033 | [2] 0.009 | [3] 0.035 | [4] -0.033 | [5] -0.011

DCAF13 (UniProt Q9NV06)
inactive: [1] 0.112 | [2] 0.006 | [3] -0.049 | [4] 0.006 | [5] 0.011

DDB1 (UniProt Q16531)
inactive: [1] 0.014 | [2] 0.002 | [3] 0.003 | [4] 0.024 | [5] 0.01

DBF4 (UniProt Q9UBU7)
inactive: [1] 0.073 | [2] 0.002 | [3] 0.071 | [4] 0.113 | [5] 0.078

DDX19B (UniProt Q9UMR2)
inactive: [1] 0.008 | [2] 0.015 | [3] -0.016 | [4] 0.003 | [5] 0.003

DCTN5 (UniProt Q9BTE1)
inactive: [1] 0.032 | [2] 0.016 | [3] 0.073 | [4] 0.028 | [5] -0.053

DCAF11 (UniProt Q8TEB1)
inactive: [1] 0.02 | [2] -0.002 | [3] 0.046 | [4] 0.046 | [5] 0.008

DDX42 (UniProt Q86XP3)
inactive: [1] 0.015 | [2] 0.016 | [3] 0.052 | [4] 0.022 | [5] 0.03

DDT (UniProt P30046)
inactive: [1] 0.006 | [2] -0.056 | [3] -0.013 | [4] 0.019 | [5] -0.052

DDX27 (UniProt Q96GQ7)
inactive: [1] 0.006 | [2] 0.026 | [3] 0 | [4] -0.024 | [5] 0.017

DCTD isoform 2 (UniProt P32321)
inactive: [1] -0.013 | [2] 0.012 | [3] 0.004 | [4] -0.006 | [5] 0.025

DDX19A (UniProt Q9NUU7)
inactive: [1] -0.014 | [2] 0.028 | [3] -0.006 | [4] 0.004 | [5] 0.016

DECR2 (UniProt Q9NUI1)
inactive: [1] -0.057 | [2] 0.06 | [3] 0.019 | [4] 0.039 | [5] 0.082

DEF6 (UniProt Q9H4E7)
inactive: [1] -0.061 | [2] -0.05 | [3] -0.027 | [4] 0.036 | [5] -0.037

Four records picked at random from those above:
DECR2 (UniProt Q9NUI1)
inactive: [1] -0.057 | [2] 0.06 | [3] 0.019 | [4] 0.039 | [5] 0.082

DDX27 (UniProt Q96GQ7)
inactive: [1] 0.006 | [2] 0.026 | [3] 0 | [4] -0.024 | [5] 0.017

DDX42 (UniProt Q86XP3)
inactive: [1] 0.015 | [2] 0.016 | [3] 0.052 | [4] 0.022 | [5] 0.03

DDT (UniProt P30046)
inactive: [1] 0.006 | [2] -0.056 | [3] -0.013 | [4] 0.019 | [5] -0.052

(listing goes on)

DENND1A isoform 6 (UniProt Q8TEH3)
inactive: [1] -0.004 | [2] -0.009 | [3] 0.203 | [4] 0.071

DDX55 (UniProt Q8NHQ9)
inactive: [1] -0.04 | [2] 0.02 | [3] 0.036 | [4] -0.001 | [5] -0.003

CYP20A1 (UniProt Q6UW02)
inactive: [1] 0.013 | [2] 0 | [3] 0.019 | [4] -0.032 | [5] 0.034

DARS2 (UniProt Q6PI48)
inactive: [1] 0.036 | [2] 0.014 | [3] 0.041 | [4] 0.019 | [5] 0.023

DDX5 (UniProt P17844)
inactive: [1] 0.037 | [2] -0.024 | [3] 0.013 | [4] 0.063 | [5] 0.032

DCTN1 (UniProt Q14203)
inactive: [1] -0.018 | [2] -0.017 | [3] -0.009 | [4] 0 | [5] 0.034

CYSTM1 (UniProt Q9H1C7)
inactive: [1] 0.122 | [2] -0.041 | [3] 0.021 | [4] -0.038 | [5] -0.075

DDX4 (UniProt Q9NQI0)
inactive: [1] -0.047 | [2] 0.007 | [3] -0.004 | [4] 0.049 | [5] -0.265

DDX54 isoform 2 (UniProt Q8TDD1)
inactive: [1] -0.131 | [2] 0.041 | [3] 0.09 | [4] 0.052 | [5] 0.008

DCAF16 (UniProt Q9NXF7)
inactive: [1] 0.067 | [2] 0.001 | [3] -0.052 | [4] -0.047 | [5] 0.061

DARS (UniProt P14868)
inactive: [1] -0.01 | [2] 0.001 | [3] 0.037 | [4] 0.043 | [5] 0.025

DCTN2 isoform 3 (UniProt Q13561)
inactive: [1] 0.003 | [2] -0.063 | [3] -0.006 | [4] -0.017 | [5] -0.035

DENR (UniProt O43583)
inactive: [1] 0.003 | [2] -0.001 | [3] 0.006 | [4] -0.011 | [5] 0.018

DCAF10 (UniProt Q5QP82)
inactive: [1] -0.019 | [2] 0.017 | [3] 0.029 | [4] -0.202 | [5] 0.201

DCP2 (UniProt Q8IU60)
inactive: [1] 0.006 | [2] -0.001 | [3] 0.041 | [4] 0.026 | [5] 0.048

DES (UniProt P17661)
inactive: [1] 0 | [2] 0.05 | [3] 0.062 | [4] -0.219 | [5] -0.131

DDX49 (UniProt Q9Y6V7)
inactive: [1] -0.022 | [2] -0.034 | [3] -0.03 | [4] -0.021 | [5] 0.025

DDX21 (UniProt Q9NR30)
inactive: [1] 0.018 | [2] 0.03 | [3] 0.033 | [4] -0.017 | [5] 0.038

DBR1 (UniProt Q9UK59)
inactive: [1] 0.018 | [2] 0.018 | [3] -0.037 | [4] -0.021 | [5] -0.088

DDX20 (UniProt Q9UHI6)
inactive: [1] -0.008 | [2] -0.064 | [3] -0.006 | [4] 0.027 | [5] 0.077

DAB2 (UniProt P98082)
inactive: [1] -0.018 | [2] -0.002 | [3] 0.025 | [4] -0.028 | [5] 0.018

DCTN2 (UniProt Q13561)
inactive: [1] -0.042 | [2] 0.029 | [3] -0.196 | [4] 0 | [5] 0.025

DCAF8 (UniProt Q5TAQ9)
inactive: [1] 0.016 | [2] -0.007 | [3] -0.035 | [4] 0.007 | [5] -0.028

DCAF7 (UniProt P61962)
inactive: [1] -0.012 | [2] -0.004 | [3] -0.024 | [4] 0.046 | [5] 0

DCTPP1 (UniProt Q9H773)
inactive: [1] -0.022 | [2] -0.019 | [3] -0.065 | [4] -0.013 | [5] 0.038
